No constants are given. Whether binding was seen depends on the method and setting. Binding seen in cells or lysates may run through a third protein. Some results given as binding are weak or reduced against the parent protein; the word gives no strength.
Tests used:
GFP-Tom1 W423A/L424A = GFP-Tom1 W423A/L424A (UniProt O60784); assay: co-IP; RPE cells transfected with GFP-Tom1 WT or W423A/L424A; GFP immunoprecipitation; western blots with antibodies to myosin VI, GFP and Tollip
GFP-Tom1 WT = GFP-Tom1 WT (UniProt O60784); assay: as above

Amino acid sequences for entries named in this document (tags omitted). A change or cut given only in a name is not applied to a line headed by its entry. Chains listed by the source or under a name are the forms on record and can include a tag or linker.
endogenous myosin VI of RPE cells (Q9UM54-1, form named): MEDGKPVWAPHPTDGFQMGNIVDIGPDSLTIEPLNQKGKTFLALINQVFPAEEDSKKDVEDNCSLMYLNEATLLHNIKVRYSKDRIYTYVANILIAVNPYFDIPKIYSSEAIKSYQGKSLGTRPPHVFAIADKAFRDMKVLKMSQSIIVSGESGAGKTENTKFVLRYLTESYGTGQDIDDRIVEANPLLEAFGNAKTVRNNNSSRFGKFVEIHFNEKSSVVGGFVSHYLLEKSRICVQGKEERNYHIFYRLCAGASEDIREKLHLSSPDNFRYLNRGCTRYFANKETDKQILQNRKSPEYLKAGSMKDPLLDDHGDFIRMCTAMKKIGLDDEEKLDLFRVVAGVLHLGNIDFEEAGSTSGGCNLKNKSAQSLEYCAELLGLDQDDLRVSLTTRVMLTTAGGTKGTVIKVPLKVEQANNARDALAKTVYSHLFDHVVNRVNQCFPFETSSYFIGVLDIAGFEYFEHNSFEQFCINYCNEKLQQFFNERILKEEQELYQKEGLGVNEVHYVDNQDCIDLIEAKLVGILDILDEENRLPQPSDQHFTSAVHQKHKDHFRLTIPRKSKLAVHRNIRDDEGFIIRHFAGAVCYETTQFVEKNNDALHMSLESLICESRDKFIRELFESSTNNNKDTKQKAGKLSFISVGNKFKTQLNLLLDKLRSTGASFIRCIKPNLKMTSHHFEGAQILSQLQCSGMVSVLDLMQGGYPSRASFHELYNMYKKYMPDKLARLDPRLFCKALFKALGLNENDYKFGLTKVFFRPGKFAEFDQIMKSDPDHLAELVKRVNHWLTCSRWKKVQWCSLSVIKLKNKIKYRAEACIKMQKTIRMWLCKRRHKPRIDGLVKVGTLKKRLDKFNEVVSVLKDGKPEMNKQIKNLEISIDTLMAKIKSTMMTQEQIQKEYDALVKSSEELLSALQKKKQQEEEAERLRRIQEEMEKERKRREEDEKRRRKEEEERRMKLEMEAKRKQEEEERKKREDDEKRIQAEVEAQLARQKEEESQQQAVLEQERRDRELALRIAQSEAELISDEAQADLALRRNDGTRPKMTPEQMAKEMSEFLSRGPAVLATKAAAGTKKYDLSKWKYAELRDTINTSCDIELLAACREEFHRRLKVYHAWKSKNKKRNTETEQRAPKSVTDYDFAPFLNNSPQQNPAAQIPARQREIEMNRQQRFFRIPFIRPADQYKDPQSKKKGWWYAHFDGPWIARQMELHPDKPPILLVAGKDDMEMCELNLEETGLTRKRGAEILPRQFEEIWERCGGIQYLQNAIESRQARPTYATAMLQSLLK

binding (GFP-Tom1 W423A/L424A): no binding | binding (GFP-Tom1 WT): binds
Substance: endogenous myosin VI of RPE cells (from UniProt Q9UM54-1 1-1285)

— paper PMC5074368
